No constants are given. Whether binding was seen depends on the method and setting. Binding seen in cells or lysates may run through a third protein. Some results given as binding are weak or reduced against the parent protein; the word gives no strength. Where a sequence is shown, tags or fusion partners need not be part of it.
Biological target: WAVE1 (UniProt Q92558)
Assay: co-IP; COS7 cells cotransfected with CaMKII and wild-type or 3S3A nArgBP2_(959-1196), with or without ionomycin before lysis; 1% Triton X-100 buffer (20 mM Tris pH 7.5, 137 mM NaCl, 10% glycerol, 2 mM EDTA); primary antibody 2 h at 4 °C, then Protein A-Sepharose

By UniProt entry, the sequences of proteins in these tests, tags left out.
UniProt Q92558: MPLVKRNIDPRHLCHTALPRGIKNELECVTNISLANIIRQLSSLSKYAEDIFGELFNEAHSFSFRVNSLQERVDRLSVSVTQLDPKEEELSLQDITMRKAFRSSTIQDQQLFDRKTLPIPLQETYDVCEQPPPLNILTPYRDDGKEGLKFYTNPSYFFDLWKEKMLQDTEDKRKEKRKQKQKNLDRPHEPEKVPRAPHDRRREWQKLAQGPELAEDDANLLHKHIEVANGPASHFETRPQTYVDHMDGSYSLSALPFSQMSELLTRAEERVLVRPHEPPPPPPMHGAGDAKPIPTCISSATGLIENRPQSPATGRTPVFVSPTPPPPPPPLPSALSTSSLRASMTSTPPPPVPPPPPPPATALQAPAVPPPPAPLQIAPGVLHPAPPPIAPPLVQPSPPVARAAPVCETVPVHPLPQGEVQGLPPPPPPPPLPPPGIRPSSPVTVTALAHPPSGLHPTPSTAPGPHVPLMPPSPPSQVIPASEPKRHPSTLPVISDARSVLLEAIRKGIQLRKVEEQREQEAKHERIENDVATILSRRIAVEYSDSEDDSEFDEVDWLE

binding	Binder
binds	EGFP-nArgBP2_(959-1196) (domain or fragment, UniProt O35413 959-1196) EVKLPAKAVYDFKAQTSKELSFKKGDTVYILRKIDQNWYEGEHHGRVGIFPISYVEKLTPPEKAQPARPPPPVQPGEIGEAIAKYNFNADTNVELSLRKGDRIILLKRVDQNWYEGKIPGTNRQGIFPVSYVEVVKRNTKGSEDYPDPPLPHSYSSDRIYSLSSNKPQRPVFSHENIQGGGEPFQALYNYTPRNEDELELRESDVVDVMEKCDDGWFVGTSRRTKFFGTFPGNYVKRL
binds	EGFP-nArgBP2_(959-1196)-3S3A (domain or fragment, UniProt O35413 959-1196) EVKLPAKAVYDFKAQTAKELSFKKGDTVYILRKIDQNWYEGEHHGRVGIFPISYVEKLTPPEKAQPARPPPPVQPGEIGEAIAKYNFNADTNVELSLRKGDRIILLKRVDQNWYEGKIPGTNRQGIFPVSYVEVVKRNTKGSEDYPDPPLPHSYSSDRIYALSSNKPQRPVFSHENIQGGGEPFQALYNYTPRNEDELELRESDVVDVMEKCDDGWFVGTARRTKFFGTFPGNYVKRL
